# Data from the supplement of paper PMC10849652.
# By UniProt entry, the sequences of proteins in these tests, tags left out. Where a name states a change or a piece, a line headed by the entry shows the natural chain unless it says otherwise.
# UniProt Q96GS6: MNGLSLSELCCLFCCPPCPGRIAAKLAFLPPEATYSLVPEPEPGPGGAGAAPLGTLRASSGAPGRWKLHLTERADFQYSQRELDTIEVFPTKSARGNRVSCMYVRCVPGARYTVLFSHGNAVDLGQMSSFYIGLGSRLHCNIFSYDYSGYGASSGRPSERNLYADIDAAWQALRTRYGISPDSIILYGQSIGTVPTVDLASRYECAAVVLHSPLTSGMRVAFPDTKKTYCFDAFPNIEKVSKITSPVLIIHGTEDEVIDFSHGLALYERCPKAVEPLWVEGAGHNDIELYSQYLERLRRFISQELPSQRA
# UniProt Q4G176: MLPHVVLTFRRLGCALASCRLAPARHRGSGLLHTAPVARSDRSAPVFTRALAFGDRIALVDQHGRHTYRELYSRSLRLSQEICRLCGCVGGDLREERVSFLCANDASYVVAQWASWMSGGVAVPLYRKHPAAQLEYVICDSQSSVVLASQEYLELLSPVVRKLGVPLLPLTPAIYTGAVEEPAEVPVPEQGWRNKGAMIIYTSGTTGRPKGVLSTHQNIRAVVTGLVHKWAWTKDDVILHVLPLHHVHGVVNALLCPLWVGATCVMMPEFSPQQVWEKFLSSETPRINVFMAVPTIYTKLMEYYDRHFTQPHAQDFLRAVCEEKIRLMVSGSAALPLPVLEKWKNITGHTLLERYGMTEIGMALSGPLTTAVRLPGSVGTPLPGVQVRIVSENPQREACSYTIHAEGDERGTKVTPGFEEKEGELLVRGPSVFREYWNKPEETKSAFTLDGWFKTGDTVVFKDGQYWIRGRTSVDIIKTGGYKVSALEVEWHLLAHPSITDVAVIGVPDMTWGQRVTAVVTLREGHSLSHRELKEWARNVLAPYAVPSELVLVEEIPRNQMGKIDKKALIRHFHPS
# UniProt Q9NPJ3: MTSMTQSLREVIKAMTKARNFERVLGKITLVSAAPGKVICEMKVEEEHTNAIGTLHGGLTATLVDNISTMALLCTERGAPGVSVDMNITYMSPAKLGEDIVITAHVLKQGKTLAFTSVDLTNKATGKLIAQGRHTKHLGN
# UniProt Q9BR61: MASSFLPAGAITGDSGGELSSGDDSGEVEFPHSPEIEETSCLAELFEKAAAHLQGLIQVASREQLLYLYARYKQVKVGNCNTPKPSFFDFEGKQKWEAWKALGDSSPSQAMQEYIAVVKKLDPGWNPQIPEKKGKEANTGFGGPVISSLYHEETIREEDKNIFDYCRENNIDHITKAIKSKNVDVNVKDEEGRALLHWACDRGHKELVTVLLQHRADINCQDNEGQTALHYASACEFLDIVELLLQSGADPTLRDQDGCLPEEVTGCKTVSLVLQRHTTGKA
# UniProt P09110: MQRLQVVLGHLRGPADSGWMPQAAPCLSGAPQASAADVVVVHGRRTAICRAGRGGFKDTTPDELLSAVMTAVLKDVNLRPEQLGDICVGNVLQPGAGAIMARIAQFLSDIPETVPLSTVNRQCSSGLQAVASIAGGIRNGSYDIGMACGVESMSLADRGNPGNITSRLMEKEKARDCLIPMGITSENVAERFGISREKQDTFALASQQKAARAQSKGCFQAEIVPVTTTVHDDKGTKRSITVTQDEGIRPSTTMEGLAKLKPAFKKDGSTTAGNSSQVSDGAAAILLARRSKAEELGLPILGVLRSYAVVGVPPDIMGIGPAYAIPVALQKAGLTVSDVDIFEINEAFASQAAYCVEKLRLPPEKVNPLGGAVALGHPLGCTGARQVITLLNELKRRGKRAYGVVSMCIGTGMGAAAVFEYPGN
# UniProt Q9NP58: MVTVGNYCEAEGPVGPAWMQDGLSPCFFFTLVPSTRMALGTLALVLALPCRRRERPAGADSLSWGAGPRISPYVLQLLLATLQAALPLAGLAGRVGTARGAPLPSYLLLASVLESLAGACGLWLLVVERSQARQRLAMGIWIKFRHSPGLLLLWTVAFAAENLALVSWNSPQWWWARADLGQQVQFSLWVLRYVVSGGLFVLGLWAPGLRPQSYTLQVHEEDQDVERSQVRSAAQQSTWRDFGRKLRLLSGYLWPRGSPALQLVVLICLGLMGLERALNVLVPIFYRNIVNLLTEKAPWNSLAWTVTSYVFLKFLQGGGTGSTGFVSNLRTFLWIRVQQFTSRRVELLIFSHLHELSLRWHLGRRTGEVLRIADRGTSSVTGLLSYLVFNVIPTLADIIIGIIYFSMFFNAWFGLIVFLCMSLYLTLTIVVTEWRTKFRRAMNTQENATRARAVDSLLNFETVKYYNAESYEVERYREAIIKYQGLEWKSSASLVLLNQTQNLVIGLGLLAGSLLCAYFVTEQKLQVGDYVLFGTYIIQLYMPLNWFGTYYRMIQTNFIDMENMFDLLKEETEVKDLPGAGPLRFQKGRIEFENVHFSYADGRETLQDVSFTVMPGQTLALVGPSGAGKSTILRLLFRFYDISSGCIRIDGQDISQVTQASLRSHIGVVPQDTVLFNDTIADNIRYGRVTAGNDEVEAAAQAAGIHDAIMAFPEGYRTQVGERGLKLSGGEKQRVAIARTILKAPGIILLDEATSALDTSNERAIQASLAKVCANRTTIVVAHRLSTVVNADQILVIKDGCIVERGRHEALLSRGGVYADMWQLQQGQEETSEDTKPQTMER
# UniProt P78536: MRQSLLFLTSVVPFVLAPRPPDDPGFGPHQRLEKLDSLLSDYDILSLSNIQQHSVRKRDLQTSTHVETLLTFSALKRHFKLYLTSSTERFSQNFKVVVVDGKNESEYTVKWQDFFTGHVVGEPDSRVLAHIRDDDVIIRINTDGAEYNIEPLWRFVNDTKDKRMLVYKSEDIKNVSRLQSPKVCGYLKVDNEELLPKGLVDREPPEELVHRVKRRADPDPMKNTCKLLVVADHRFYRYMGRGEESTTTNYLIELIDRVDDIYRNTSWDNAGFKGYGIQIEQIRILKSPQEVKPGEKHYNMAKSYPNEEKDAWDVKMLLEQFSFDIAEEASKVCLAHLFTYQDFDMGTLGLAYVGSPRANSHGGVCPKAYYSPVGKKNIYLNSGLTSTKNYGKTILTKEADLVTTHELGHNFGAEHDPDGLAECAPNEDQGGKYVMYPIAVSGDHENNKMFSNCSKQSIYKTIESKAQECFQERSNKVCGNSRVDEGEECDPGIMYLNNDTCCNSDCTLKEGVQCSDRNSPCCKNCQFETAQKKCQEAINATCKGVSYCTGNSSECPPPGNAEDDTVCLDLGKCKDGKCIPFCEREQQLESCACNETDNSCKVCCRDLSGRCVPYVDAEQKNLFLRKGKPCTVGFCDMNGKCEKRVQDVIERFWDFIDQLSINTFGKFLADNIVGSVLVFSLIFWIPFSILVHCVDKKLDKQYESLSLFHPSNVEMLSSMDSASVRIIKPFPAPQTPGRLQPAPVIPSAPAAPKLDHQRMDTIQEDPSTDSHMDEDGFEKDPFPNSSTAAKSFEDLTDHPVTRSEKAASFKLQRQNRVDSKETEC
# UniProt Q9NX38: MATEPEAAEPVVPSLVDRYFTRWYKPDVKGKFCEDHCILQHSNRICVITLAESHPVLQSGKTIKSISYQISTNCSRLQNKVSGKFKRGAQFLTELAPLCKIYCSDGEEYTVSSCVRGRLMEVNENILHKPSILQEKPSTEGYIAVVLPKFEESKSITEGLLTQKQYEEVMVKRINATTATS
# UniProt Q9Y312: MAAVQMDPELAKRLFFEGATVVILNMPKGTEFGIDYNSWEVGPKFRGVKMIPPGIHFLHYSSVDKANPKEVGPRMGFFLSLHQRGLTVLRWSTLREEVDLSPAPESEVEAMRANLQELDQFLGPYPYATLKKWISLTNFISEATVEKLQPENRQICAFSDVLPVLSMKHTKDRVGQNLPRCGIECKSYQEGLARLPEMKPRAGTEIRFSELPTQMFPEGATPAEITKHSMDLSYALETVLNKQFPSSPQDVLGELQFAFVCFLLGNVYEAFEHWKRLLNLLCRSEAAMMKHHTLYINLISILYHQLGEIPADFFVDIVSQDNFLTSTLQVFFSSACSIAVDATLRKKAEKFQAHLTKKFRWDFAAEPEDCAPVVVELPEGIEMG
# UniProt P21399: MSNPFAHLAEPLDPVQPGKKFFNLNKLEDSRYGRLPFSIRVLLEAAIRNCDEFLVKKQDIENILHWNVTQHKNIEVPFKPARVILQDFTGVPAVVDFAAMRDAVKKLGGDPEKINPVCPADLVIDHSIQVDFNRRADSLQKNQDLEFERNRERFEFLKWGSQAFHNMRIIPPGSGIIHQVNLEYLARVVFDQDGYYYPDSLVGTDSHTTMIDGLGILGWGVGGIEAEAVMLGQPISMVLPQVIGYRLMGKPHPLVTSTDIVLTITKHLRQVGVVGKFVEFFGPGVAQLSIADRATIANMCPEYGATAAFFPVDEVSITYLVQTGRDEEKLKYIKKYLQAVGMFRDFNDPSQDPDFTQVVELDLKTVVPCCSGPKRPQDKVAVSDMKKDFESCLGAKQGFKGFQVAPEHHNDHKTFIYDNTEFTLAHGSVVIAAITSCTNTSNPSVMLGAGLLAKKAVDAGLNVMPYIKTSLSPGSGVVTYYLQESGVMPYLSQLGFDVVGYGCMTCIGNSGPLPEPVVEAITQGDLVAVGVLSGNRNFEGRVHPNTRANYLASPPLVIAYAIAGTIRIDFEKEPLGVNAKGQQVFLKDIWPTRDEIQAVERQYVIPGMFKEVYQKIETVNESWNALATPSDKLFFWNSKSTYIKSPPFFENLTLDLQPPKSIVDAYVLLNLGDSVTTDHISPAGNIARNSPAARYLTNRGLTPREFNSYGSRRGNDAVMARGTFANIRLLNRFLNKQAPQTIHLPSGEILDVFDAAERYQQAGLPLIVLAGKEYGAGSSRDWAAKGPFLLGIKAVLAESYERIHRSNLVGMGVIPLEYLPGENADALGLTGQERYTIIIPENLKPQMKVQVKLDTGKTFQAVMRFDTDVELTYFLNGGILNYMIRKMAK
# UniProt O95870: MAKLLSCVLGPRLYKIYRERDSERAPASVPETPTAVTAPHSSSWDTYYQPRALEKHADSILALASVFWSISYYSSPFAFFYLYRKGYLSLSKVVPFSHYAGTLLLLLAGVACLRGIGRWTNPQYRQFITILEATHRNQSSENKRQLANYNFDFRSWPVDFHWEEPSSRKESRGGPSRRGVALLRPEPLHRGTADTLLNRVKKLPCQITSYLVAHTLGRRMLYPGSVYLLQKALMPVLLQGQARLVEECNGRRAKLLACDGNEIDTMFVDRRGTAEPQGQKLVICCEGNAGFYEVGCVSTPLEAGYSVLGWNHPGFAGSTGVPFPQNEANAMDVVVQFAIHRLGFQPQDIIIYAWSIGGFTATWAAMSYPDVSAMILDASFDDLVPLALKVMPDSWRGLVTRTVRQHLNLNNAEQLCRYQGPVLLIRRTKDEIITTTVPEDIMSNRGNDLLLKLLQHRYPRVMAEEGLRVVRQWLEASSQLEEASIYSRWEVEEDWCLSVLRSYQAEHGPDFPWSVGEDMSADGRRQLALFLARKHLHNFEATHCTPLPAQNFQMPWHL
# UniProt P24752: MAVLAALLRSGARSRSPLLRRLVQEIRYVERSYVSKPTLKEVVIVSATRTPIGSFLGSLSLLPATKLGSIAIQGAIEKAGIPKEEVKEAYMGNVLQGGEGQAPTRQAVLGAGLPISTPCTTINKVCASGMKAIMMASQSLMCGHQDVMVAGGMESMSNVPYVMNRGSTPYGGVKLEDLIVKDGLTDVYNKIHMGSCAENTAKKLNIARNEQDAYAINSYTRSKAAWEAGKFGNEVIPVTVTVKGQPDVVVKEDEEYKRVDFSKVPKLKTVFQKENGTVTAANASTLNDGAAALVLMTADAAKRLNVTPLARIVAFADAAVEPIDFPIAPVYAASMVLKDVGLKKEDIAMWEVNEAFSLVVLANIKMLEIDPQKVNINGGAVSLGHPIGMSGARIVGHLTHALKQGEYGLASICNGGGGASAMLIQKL
# UniProt P24666: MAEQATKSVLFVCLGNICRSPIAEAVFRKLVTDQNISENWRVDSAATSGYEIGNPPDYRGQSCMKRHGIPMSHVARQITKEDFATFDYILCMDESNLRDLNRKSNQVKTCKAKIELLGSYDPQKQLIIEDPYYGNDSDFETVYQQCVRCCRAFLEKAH
# The list shows a part of the results.
# Experiments:
# Test in all cases: log2 fold change, soluble protein after heating vs DMSO (PISA); higher = thermal stabilisation; K562 cells, 10 uM, 30 min; active = over 0.2 and 3.5 SD of the protein, either way, in both replicates (recomputed)
# [1] = compound: COC1=CC=C(C=C1)CN2C=CC3=C2C=C(C=C3)C(=O)NO
# In short: (§1)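 Values are thermal stability changes relative to control samples and are taken from duplicates. They are stated as log2 fold changes. Before quantification by TMTpro 16plex LC-MS/MS with equalised channel sums, K562 cells at 2×10^6 cells/mL were treated with 10 μM compound for 30 min, heated in aliquots for 3 min across 48°C-58°C, pooled, extracted in PBS with 0.5% NP-40 at 4°C, and centrifuged at 21,000xg for 90 min to give the soluble supernatant.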
# filanesib = compound: CON(C)C(=O)N1N=C(c2cc(F)ccc2F)S[C@@]1(CCCN)c1ccccc1 [filanesib]
# In short: as §1
# zotarolimus = compound: CO[C@H]1C[C@@H]2CC[C@@H](C)[C@@](O)(O2)C(=O)C(=O)N2CCCC[C@H]2C(=O)O[C@H]([C@H](C)C[C@@H]2CC[C@H](n3cnnn3)[C@H](OC)C2)CC(=O)[C@H](C)/C=C(\C)[C@@H](O)[C@@H](OC)C(=O)[C@H](C)C[C@H](C)/C=C/C=C/C=C/1C [zotarolimus]
# In short: as §1
# idasanutlin = compound: COc1cc(C(=O)O)ccc1NC(=O)[C@@H]1N[C@@H](CC(C)(C)C)[C@](C#N)(c2ccc(Cl)cc2F)[C@H]1c1cccc(Cl)c1F [idasanutlin]
# In short: as §1
# alisertib = compound: COc1cc(Nc2ncc3c(n2)-c2ccc(Cl)cc2C(c2c(F)cccc2OC)=NC3)ccc1C(=O)O [alisertib]
# In short: as §1
# [2] = compound: COc1cc2nc(-c3cc(F)ccc3O)nc(N[C@@H]3CNC[C@H]3C(C)(C)O)c2cc1OC
# In short: as §1
# gefitinib = compound: COc1cc2ncnc(Nc3ccc(F)c(Cl)c3)c2cc1OCCCN1CCOCC1 [gefitinib]
# In short: as §1
# [3] = compound: COc1cccc2cc(-c3nc([C@H]4CC[C@H](C(=O)O)CC4)n4ncnc(N)c34)[nH]c12
# In short: as §1
# lapatinib = compound: CS(=O)(=O)CCNCc1ccc(-c2ccc3ncnc(Nc4ccc(OCc5cccc(F)c5)c(Cl)c4)c3c2)o1 [lapatinib]
# In short: as §1
# pictilisib = compound: CS(=O)(=O)N1CCN(Cc2cc3nc(-c4cccc5[nH]ncc45)nc(N4CCOCC4)c3s2)CC1 [pictilisib]
# In short: as §1
# [4] = compound: CS(=O)(=O)c1ccc(-c2cnc(N)c(C(=O)Nc3ccccc3)n2)cc1
# In short: as §1
# crizotinib = compound: C[C@@H](Oc1cc(-c2cnn(C3CCNCC3)c2)cnc1N)c1c(Cl)ccc(F)c1Cl [crizotinib]
# In short: as §1
# [5] = compound: C[C@@H]1COCCN1C2=NC(=NC(=C2)C3(CC3)S(=O)(=O)C)C4=C5C=CNC5=CC=C4
# In short: as §1
# [6] = compound: C[C@H](C1=CC=C(C=C1)C(=O)NC2=C3C=CNC3=NC=C2)N
# In short: as §1
# duvelisib = compound: C[C@H](Nc1ncnc2nc[nH]c12)c1cc2cccc(Cl)c2c(=O)n1-c1ccccc1 [duvelisib]
# In short: as §1
# gandotinib = compound: Cc1cc(Nc2cc(CN3CCOCC3)c3nc(C)c(Cc4ccc(Cl)cc4F)n3n2)n[nH]1 [gandotinib]
# In short: as §1
# tozasertib = compound: Cc1cc(Nc2cc(N3CCN(C)CC3)nc(Sc3ccc(NC(=O)C4CC4)cc3)n2)n[nH]1 [tozasertib]
# In short: as §1
# [7] = compound: Cc1cc(SCc2sc(-c3ccc(C(F)(F)F)cc3)nc2C)ccc1OCC(=O)O
# In short: as §1
# doramapimod = compound: Cc1ccc(-n2nc(C(C)(C)C)cc2NC(=O)Nc2ccc(OCCN3CCOCC3)c3ccccc23)cc1 [doramapimod]
# In short: as §1
# ispinesib = compound: Cc1ccc(C(=O)N(CCCN)[C@@H](c2nc3cc(Cl)ccc3c(=O)n2Cc2ccccc2)C(C)C)cc1 [ispinesib]
# In short: as §1
Target,log2 fold change [1],log2 fold change (filanesib),log2 fold change (zotarolimus),log2 fold change (idasanutlin),log2 fold change (alisertib),log2 fold change [2],log2 fold change (gefitinib),log2 fold change [3],log2 fold change (lapatinib),log2 fold change (pictilisib),log2 fold change [4],log2 fold change (crizotinib),log2 fold change [5],log2 fold change [6],log2 fold change (duvelisib),log2 fold change (gandotinib),log2 fold change (tozasertib),log2 fold change [7],log2 fold change (doramapimod),log2 fold change (ispinesib)
ABRAXAS2 (UniProt Q15018),inactive: -0.038,inactive: -0.03,inactive: 0.019,inactive: -0.019,inactive: -0.013,inactive: -0.003,inactive: -0.003,inactive: 0.023,inactive: -0.004,inactive: -0.007,inactive: 0.012,inactive: 0.006,inactive: 0.036,inactive: -0.033,inactive: 0,inactive: 0.033,inactive: -0.024,inactive: -0.058,inactive: -0.061,inactive: 0.004
ABHD17A isoform 2 (UniProt Q96GS6),inactive: -0.194,inactive: 0.086,inactive: 0.012,inactive: 0.034,inactive: 0.032,inactive: 0.069,inactive: 0.081,inactive: 0.027,inactive: -0.038,inactive: 0.077,inactive: -0.027,inactive: -0.135,inactive: -0.03,inactive: -0.015,,inactive: -0.283,,inactive: 0.016,inactive: 0.004,inactive: -0.129
ACSF3 (UniProt Q4G176),inactive: -0.099,inactive: -0.045,inactive: -0.01,inactive: 0.051,inactive: 0.001,inactive: -0.053,inactive: -0.096,inactive: 0.054,inactive: -0.004,inactive: 0.064,inactive: 0.018,inactive: 0.063,inactive: -0.002,inactive: 0.026,,inactive: 0.09,,inactive: 0.022,inactive: -0.027,inactive: 0.174
ACOT13 (UniProt Q9NPJ3),inactive: 0.219,inactive: -0.134,inactive: 0.024,inactive: -0.08,inactive: -0.053,inactive: -0.016,inactive: -0.001,inactive: 0.054,inactive: -0.009,inactive: -0.195,inactive: -0.014,inactive: 0.102,inactive: -0.081,inactive: -0.081,inactive: -0.011,inactive: 0.074,inactive: 0.009,inactive: -0.011,inactive: -0.071,inactive: 0.084
ABCF1 (UniProt Q8NE71),inactive: -0.061,inactive: 0.224,inactive: 0.025,inactive: 0.076,inactive: -0.071,inactive: 0.059,inactive: -0.027,inactive: -0.1,inactive: 0.053,inactive: 0.032,inactive: 0.008,inactive: -0.005,inactive: -0.157,inactive: 0.128,inactive: -0.042,inactive: 0.056,inactive: -0.05,inactive: 0.014,inactive: 0.12,inactive: -0.091
ACBD6 (UniProt Q9BR61),inactive: 0.099,inactive: 0.034,inactive: 0.016,inactive: 0.09,inactive: -0.088,inactive: 0.133,inactive: -0.018,inactive: -0.271,inactive: -0.14,inactive: 0.012,active: 0.386,inactive: -0.36,inactive: -0.041,inactive: 0.075,,inactive: 0.076,,inactive: 0.082,inactive: -0.048,inactive: -0.14
"ACTB, A0A2R8Y793",inactive: 0.075,inactive: 0.004,inactive: 0.037,inactive: -0.036,inactive: -0.039,inactive: 0.015,inactive: -0.013,inactive: 0.035,inactive: -0.028,inactive: -0.063,inactive: -0.035,inactive: 0.031,inactive: 0.003,inactive: -0.051,inactive: 0.054,inactive: 0.018,inactive: 0.026,inactive: -0.017,inactive: -0.019,inactive: 0.077
ACAA1 (UniProt P09110),inactive: 0.045,inactive: -0.047,inactive: -0.03,inactive: -0.039,inactive: -0.092,inactive: -0.025,inactive: -0.007,inactive: 0.02,inactive: 0.007,inactive: -0.003,inactive: 0.017,inactive: 0.014,inactive: -0.034,inactive: -0.013,inactive: 0.023,inactive: -0.023,inactive: -0.021,inactive: -0.012,inactive: -0.005,inactive: 0.048
ABCB6 (UniProt Q9NP58),inactive: -0.007,inactive: -0.077,inactive: 0.055,inactive: -0.137,inactive: -0.069,inactive: 0.058,inactive: -0.011,inactive: 0.024,inactive: -0.005,inactive: 0.06,inactive: 0.03,active: -0.457,inactive: 0.093,inactive: -0.057,,inactive: -0.031,,inactive: -0.028,inactive: 0.049,inactive: -0.207
ADAM17 (UniProt P78536),inactive: -0.152,inactive: 0.014,inactive: 0.039,inactive: -0.027,inactive: -0.003,inactive: -0.014,inactive: 0.027,inactive: -0.028,inactive: -0.009,inactive: 0.018,inactive: 0.035,inactive: 0.1,inactive: 0.028,inactive: 0.058,inactive: 0.034,inactive: -0.06,inactive: -0.014,inactive: -0.014,inactive: 0.04,inactive: -0.003
ABITRAM (UniProt Q9NX38),inactive: 0.06,inactive: 0.036,inactive: 0.041,inactive: 0.022,inactive: 0.101,inactive: 0.006,inactive: 0.111,inactive: 0.139,inactive: 0.021,inactive: 0.053,inactive: 0.055,inactive: 0.012,inactive: 0.1,inactive: -0.011,,inactive: 0.169,,inactive: 0.079,inactive: 0.006,inactive: 0.108
ACTA1 (UniProt P68133),inactive: -0.031,inactive: 0.011,inactive: 0.007,inactive: -0.018,inactive: -0.023,inactive: 0.04,inactive: 0.003,inactive: 0.059,inactive: -0.064,inactive: -0.019,inactive: -0.022,inactive: 0.065,inactive: 0.001,inactive: -0.016,inactive: 0.002,inactive: -0.013,inactive: -0.003,inactive: -0.064,inactive: -0.005,inactive: 0.048
AAR2 (UniProt Q9Y312),inactive: 0.022,inactive: 0.111,inactive: 0.042,inactive: 0.002,inactive: -0.129,inactive: 0.104,inactive: 0.075,inactive: 0.058,inactive: -0.005,inactive: -0.082,inactive: -0.06,inactive: -0.081,inactive: 0.019,inactive: 0.054,,inactive: -0.29,,inactive: 0.021,inactive: -0.038,inactive: 0.085
ACO1 (UniProt P21399),inactive: -0.004,inactive: -0.035,inactive: 0.004,inactive: -0.033,inactive: 0.003,inactive: -0.017,inactive: -0.005,inactive: 0.05,inactive: 0.036,inactive: 0.002,inactive: 0.023,inactive: 0.104,inactive: 0.078,inactive: -0.116,inactive: 0,inactive: 0.007,inactive: 0.013,inactive: 0.016,inactive: -0.016,inactive: 0.086
ABHD16A (UniProt O95870),inactive: 0.051,inactive: 0.067,inactive: 0.204,inactive: -0.042,inactive: -0.049,active: 0.347,inactive: 0.158,inactive: -0.039,inactive: 0.235,inactive: 0.018,inactive: -0.012,inactive: 0.277,inactive: 0.029,inactive: 0.033,,inactive: 0.158,,inactive: 0.012,inactive: 0.136,inactive: 0.125
ACAT1 (UniProt P24752),inactive: -0.031,inactive: -0.033,inactive: -0.026,inactive: 0.018,inactive: -0.12,inactive: 0.007,inactive: 0.006,inactive: 0.01,inactive: -0.055,inactive: -0.022,inactive: -0.007,inactive: 0.09,inactive: -0.018,inactive: -0.035,inactive: 0.011,inactive: -0.046,inactive: -0.032,inactive: -0.035,inactive: -0.041,inactive: -0.004
ACP1 isoform 2 (UniProt P24666),inactive: 0.029,inactive: 0.095,inactive: 0.009,inactive: 0.028,inactive: 0.094,inactive: 0.036,inactive: 0.045,inactive: -0.077,inactive: 0.014,inactive: 0.055,inactive: 0.008,inactive: -0.079,inactive: 0.016,inactive: 0.15,,inactive: -0.137,,inactive: 0.12,inactive: 0.033,inactive: -0.041

# Part of the list above, tab-delimited:
Target	log2 fold change [1]	log2 fold change (filanesib)	log2 fold change (zotarolimus)	log2 fold change (idasanutlin)	log2 fold change (alisertib)	log2 fold change [2]	log2 fold change (gefitinib)	log2 fold change [3]	log2 fold change (lapatinib)	log2 fold change (pictilisib)	log2 fold change [4]	log2 fold change (crizotinib)	log2 fold change [5]	log2 fold change [6]	log2 fold change (duvelisib)	log2 fold change (gandotinib)	log2 fold change (tozasertib)	log2 fold change [7]	log2 fold change (doramapimod)	log2 fold change (ispinesib)
ACSF3 (UniProt Q4G176)	inactive: -0.099	inactive: -0.045	inactive: -0.01	inactive: 0.051	inactive: 0.001	inactive: -0.053	inactive: -0.096	inactive: 0.054	inactive: -0.004	inactive: 0.064	inactive: 0.018	inactive: 0.063	inactive: -0.002	inactive: 0.026		inactive: 0.09		inactive: 0.022	inactive: -0.027	inactive: 0.174
ACOT13 (UniProt Q9NPJ3)	inactive: 0.219	inactive: -0.134	inactive: 0.024	inactive: -0.08	inactive: -0.053	inactive: -0.016	inactive: -0.001	inactive: 0.054	inactive: -0.009	inactive: -0.195	inactive: -0.014	inactive: 0.102	inactive: -0.081	inactive: -0.081	inactive: -0.011	inactive: 0.074	inactive: 0.009	inactive: -0.011	inactive: -0.071	inactive: 0.084
ACBD6 (UniProt Q9BR61)	inactive: 0.099	inactive: 0.034	inactive: 0.016	inactive: 0.09	inactive: -0.088	inactive: 0.133	inactive: -0.018	inactive: -0.271	inactive: -0.14	inactive: 0.012	active: 0.386	inactive: -0.36	inactive: -0.041	inactive: 0.075		inactive: 0.076		inactive: 0.082	inactive: -0.048	inactive: -0.14
ACTB, A0A2R8Y793	inactive: 0.075	inactive: 0.004	inactive: 0.037	inactive: -0.036	inactive: -0.039	inactive: 0.015	inactive: -0.013	inactive: 0.035	inactive: -0.028	inactive: -0.063	inactive: -0.035	inactive: 0.031	inactive: 0.003	inactive: -0.051	inactive: 0.054	inactive: 0.018	inactive: 0.026	inactive: -0.017	inactive: -0.019	inactive: 0.077
